Test [1] deals with T1, RP105 (CD180) (mouse (endogenous in bone marrow monocytes)) (UniProt Q62192).
T1 sequence: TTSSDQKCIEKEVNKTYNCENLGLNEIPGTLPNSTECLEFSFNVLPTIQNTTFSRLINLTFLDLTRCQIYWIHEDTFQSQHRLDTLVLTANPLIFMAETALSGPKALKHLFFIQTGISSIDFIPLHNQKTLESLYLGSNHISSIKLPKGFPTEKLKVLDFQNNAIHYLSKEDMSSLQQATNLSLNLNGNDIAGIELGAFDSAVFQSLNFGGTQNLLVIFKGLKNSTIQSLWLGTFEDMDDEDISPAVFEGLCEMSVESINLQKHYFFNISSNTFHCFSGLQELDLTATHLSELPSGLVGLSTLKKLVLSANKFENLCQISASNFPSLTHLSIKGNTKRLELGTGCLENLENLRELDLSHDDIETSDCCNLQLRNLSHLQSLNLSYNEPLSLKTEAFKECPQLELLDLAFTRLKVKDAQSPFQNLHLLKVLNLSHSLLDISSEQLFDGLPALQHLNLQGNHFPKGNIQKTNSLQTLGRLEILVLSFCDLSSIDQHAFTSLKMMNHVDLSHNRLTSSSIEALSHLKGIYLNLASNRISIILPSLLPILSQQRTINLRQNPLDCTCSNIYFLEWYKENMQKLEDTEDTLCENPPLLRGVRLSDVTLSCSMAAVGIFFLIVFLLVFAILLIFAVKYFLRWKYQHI
The experiment in a line: co-IP; IP with anti-RP105 (clone RP/14) and protein A/G plus agarose from lysates of negatively isolated bone marrow monocytes of WT and Ceacam1-/- mice, with or without 500 ng/mL LPS for 15 min; immunoblot. For orientation: In western blotting, separated proteins are transferred to a membrane and probed.

The chains behind the UniProt entries cited, without tags or fusion partners.
UniProt P25911: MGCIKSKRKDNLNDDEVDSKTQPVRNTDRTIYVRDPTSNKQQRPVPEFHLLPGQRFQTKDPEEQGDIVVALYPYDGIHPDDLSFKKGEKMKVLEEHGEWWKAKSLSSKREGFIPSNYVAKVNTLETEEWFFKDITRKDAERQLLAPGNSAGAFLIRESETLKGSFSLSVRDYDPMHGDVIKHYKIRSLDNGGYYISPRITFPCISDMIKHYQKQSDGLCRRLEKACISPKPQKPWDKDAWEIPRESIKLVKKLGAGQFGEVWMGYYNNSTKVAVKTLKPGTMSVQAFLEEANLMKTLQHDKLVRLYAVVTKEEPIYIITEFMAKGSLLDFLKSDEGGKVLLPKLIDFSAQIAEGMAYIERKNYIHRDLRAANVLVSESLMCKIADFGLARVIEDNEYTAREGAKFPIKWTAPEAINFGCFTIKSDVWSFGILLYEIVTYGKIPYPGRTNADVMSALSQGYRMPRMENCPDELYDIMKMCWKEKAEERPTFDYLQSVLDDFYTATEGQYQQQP
UniProt P29351: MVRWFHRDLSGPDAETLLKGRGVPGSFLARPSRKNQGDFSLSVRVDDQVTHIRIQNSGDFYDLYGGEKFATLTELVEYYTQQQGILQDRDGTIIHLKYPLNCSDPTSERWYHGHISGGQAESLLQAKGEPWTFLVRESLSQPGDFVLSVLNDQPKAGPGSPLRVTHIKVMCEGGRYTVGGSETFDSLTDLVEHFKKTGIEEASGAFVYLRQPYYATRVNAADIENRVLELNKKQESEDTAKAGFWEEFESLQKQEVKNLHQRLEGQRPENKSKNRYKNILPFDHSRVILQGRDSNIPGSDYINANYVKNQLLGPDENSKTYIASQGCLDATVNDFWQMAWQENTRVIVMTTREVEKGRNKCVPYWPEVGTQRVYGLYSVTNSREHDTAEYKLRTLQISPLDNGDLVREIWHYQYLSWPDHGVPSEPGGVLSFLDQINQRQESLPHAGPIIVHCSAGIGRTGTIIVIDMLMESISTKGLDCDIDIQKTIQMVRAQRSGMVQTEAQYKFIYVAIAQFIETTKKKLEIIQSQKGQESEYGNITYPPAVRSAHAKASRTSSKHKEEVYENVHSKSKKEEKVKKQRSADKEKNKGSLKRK

For test [2], the target named is T2, CEACAM1 (mouse (endogenous in bone marrow monocytes)) (UniProt P31809).
T2 sequence (chain, phosphorylated on tyrosine after LPS treatment (4G10 blot); residue not stated): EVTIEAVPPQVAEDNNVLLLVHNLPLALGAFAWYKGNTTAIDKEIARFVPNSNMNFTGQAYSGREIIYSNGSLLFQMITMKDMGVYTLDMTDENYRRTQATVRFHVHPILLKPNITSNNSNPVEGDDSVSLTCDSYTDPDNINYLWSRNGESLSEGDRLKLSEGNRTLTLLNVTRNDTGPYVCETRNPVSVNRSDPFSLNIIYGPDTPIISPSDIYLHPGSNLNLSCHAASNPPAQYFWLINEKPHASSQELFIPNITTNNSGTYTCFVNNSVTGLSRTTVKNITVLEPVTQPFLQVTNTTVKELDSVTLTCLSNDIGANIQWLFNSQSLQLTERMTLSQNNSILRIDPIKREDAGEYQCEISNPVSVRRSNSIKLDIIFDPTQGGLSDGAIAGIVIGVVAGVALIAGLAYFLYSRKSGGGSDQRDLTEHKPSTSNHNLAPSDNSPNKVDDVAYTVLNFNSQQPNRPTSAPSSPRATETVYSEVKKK
Description: co-IP; IP with anti-CEACAM1 (clone MAb-CC1) and protein A/G plus agarose from lysates of WT bone marrow monocytes, with or without 500 ng/mL LPS for 15 min; immunoblot.

For test [3], the target named is T1, RP105 (CD180) (mouse (endogenous in bone marrow monocytes)). The experiment in a line: co-IP; IP with anti-RP105 (clone RP/14) and protein A/G plus agarose from lysates of negatively isolated bone marrow monocytes of WT and Ceacam1-/- mice, with or without 500 ng/mL LPS for 15 min; immunoblot. The source holds these as a separate data set.
The target is the same in test [4]. Description: condition: only WT monocytes after 500 ng/mL LPS for 15 min; co-IP; IP with anti-RP105 (clone RP/14) and protein A/G plus agarose from lysates of WT bone marrow monocytes after 500 ng/mL LPS for 15 min; immunoblot.

This passage reports binding results from article PMC6345024.

Results are given in words; binding and its absence hold for the method and conditions named. Binding seen in cells or lysates may run through a third protein. Some entries that bind do so weakly or less than the wild type.

For “Lyn (from UniProt P25911 1-512) (enzyme)”, the binding result in test [1] was “no binding”.
Take “phospho-SHP-1 (from UniProt P29351 1-595) (enzyme)”: the binding entry in test [2] is on record as “binds”.

B1: phospho-VAV1 (protein, UniProt P27870 1-845)
chain: MELWRQCTHWLIQCRVLPPSHRVTWEGAQVCELAQALRDGVLLCQLLNNLLPQAINLREVNLRPQMSQFLCLKNIRTFLSTCCEKFGLKRSELFEAFDLFDVQDFGKVIYTLSALSWTPIAQNKGIMPFPTEDSALNDEDIYSGLSDQIDDTAEEDEDLYDCVENEEAEGDEIYEDLMRLESVPTPPKMTEYDKRCCCLREIQQTEEKYTDTLGSIQQHFMKPLQRFLKPQDMETIFVNIEELFSVHTHFLKELKDALAGPGATTLYQVFIKYKERFLVYGRYCSQVESASKHLDQVATAREDVQMKLEECSQRANNGRFTLRDLLMVPMQRVLKYHLLLQELVKHTQDATEKENLRLALDAMRDLAQCVNEVKRDNETLRQITNFQLSIENLDQSLANYGRPKIDGELKITSVERRSKTDRYAFLLDKALLICKRRGDSYDLKASVNLHSFQVRDDSSGERDNKKWSHMFLLIEDQGAQGYELFFKTRELKKKWMEQFEMAISNIYPENATANGHDFQMFSFEETTSCKACQMLLRGTFYQGYRCYRCRAPAHKECLGRVPPCGRHGQDFAGTMKKDKLHRRAQDKKRNELGLPKMEVFQEYYGIPPPPGAFGPFLRLNPGDIVELTKAEAEHNWWEGRNTATNEVGWFPCNRVHPYVHGPPQDLSVHLWYAGPMERAGAEGILTNRSDGTYLVRQRVKDTAEFAISIKYNVEVKHIKIMTSEGLYRITEKKAFRGLLELVEFYQQNSLKDCFKSLDTTLQFPYKEPERRAISKPPAGSTKYFGTAKARYDFCARDRSELSLKEGDIIKILNKKGQQGWWRGEIYGRIGWFPSNYVEEDYSEYC
modifications: phosphotyrosine at Y160 (detected with phospho-VAV1 Y160 pAb)
As to B1, the figures for the binding result in test [3] and in test [4] were “binds” and “no binding”, respectively.

B2: MD1 (protein, UniProt O88188 20-162)
chain: DHGSENGWPKHTACNSGGLEVVYQSCDPLQDFGLSIDQCSKQIQSNLNIRFGIILRQDIRKLFLDITLMAKGSSILNYSYPLCEEDQPKFSFCGRRKGEQIYYAGPVNNPGLDVPQGEYQLLLELYNENRATVACANATVTSS
For the molecule B2, in test [3], the binding entry is reported as “binds”.

B3: CD14 (receptor, UniProt P10810 16-336)
chain: SPAPPEPCELDEESCSCNFSDPKPDWSSAFNCLGAADVELYGGGRSLEYLLKRVDTEADLGQFTDIIKSLSLKRLTVRAARIPSRILFGALRVLGISGLQELTLENLEVTGTAPPPLLEATGPDLNILNLRNVSWATRDAWLAELQQWLKPGLKVLSIAQAHSLNFSCEQVRVFPALSTLDLSDNPELGERGLISALCPLKFPTLQVLALRNAGMETPSGVCSALAAARVQLQGLDLSHNSLRDAAGAPSCDWPSQLNSLNLSFTGLKQVPKGLPAKLSVLDLSYNRLDRNPSPDELPQVGNLSLKGNPFLDSESHSEKFN
On to B3, for which the binding result in test [3] is listed as “binds”.
